Measurements: patent US4894437 (dated 1990)

Test: general procedure: solution-phase peptide synthesis; DCC; DEPC/Et3N

Boc-His(Tos)-Leu [CH(OTBDMS)CH2 ]Val-ILe-AMP
step yield (coupling step): 87%

3-(Phenylthio)propionyl-His-Leu [CH(OH)CH2 ]Val-Ile-AMP
final HPLC purity (late stage modification step, 225 nm): 100% purity

His(Tos)-Leu [CH(OH)CH2 ]Val-IIe-AMP
step yield (late stage modification step): 84%
